Values of other authors, collected in patent US11234968B2, “Use of VCP inhibitor and oncolytic virus in the preparation of an anti-tumor drug” (priority 2016, dated 2022).
At least one compound was matched to its structure with a doubt left.

Tested on: tumor cells
Details: 50 μM chrysophanol in combination with M1 virus (MOI=0.001); 72 hours; cited from earlier work

Cc1cc(O)c2c(c1)C(=O)c1cccc(O)c1C2=O [chrysophanol]
survival rate of the tumor cells: 39.6%
